# Data from the supplement of paper PMC8728848.
# This is one part of the list.
# What was measured:
# Assay in all cases: glycan array binding signal (z-score within array); higher = stronger binding
# Settings in all cases: glycan notation: IUPAC condensed, linker removed
# [1] = molecular target: Gal3S(b1-3)[Fuc(a1-4)]GlcNAc
# Outline: (§1)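 Glycan array binding is given as a within-array Z-score, which can be read as non-binding when negative. The arrays, 3228 of them, came from the Consortium for Functional Glycomics database and were retained only where the protein sequence was available. Z-scores were averaged across arrays of the same protein sequence at different concentrations or buffers and across linkers.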
# [2] = molecular target: Gal3S(b1-4)Glc
# Outline: as §1
# [3] = molecular target: Gal3S(b1-4)Glc6S
# Outline: as §1
# [4] = molecular target: Gal3S(b1-4)GlcNAc
# Outline: as §1
# [5] = molecular target: Gal3S(b1-4)GlcNAc6S
# Outline: as §1
# [6] = molecular target: Gal3S(b1-4)[Fuc(a1-3)]Glc
# Outline: as §1
# [7] = molecular target: Gal3S(b1-4)[Fuc(a1-3)]Glc6S
# Outline: as §1
# [8] = molecular target: Gal3S4S(b1-4)GlcNAc
# Outline: as §1
# [9] = molecular target: Gal3S6S(b1-4)GlcNAc
# Outline: as §1
# [10] = molecular target: Gal3S6S(b1-4)GlcNAc6S
# Outline: as §1
# [11] = molecular target: Gal4S(b1-4)GlcNAc
# Outline: as §1
# [12] = molecular target: Gal4S6S(b1-4)GlcNAc
# Outline: as §1
# [13] = molecular target: Gal6S(b1-3)GlcNAc
# Outline: as §1
# [14] = molecular target: Gal6S(b1-3)GlcNAc6S
# Outline: as §1
# [15] = molecular target: Gal6S(b1-4)Glc
# Outline: as §1
# [16] = molecular target: Gal6S(b1-4)Glc6S
# Outline: as §1
# [17] = molecular target: Gal6S(b1-4)GlcNAc
# Outline: as §1
# [18] = molecular target: Gal6S(b1-4)GlcNAc6S
# Outline: as §1
# [19] = molecular target: GalNAc(a1-3)Gal
# Outline: as §1
# [20] = molecular target: GalNAc(a1-3)GalNAc
# Outline: as §1
# [21] = molecular target: GalNAc(a1-3)GalNAc(b1-3)Gal(a1-4)Gal(b1-4)Glc
# Outline: as §1
# [22] = molecular target: GalNAc(a1-3)GalNAc(b1-3)Gal(a1-4)Gal(b1-4)GlcNAc
# Outline: as §1
# [23] = molecular target: GalNAc(b1-3)Gal
# Outline: as §1
# [24] = molecular target: GalNAc(b1-3)Gal(a1-4)Gal(b1-4)GlcNAc
# Outline: as §1
# [25] = molecular target: GalNAc(b1-3)Gal(a1-4)Gal(b1-4)GlcNAc(b1-3)Gal(b1-4)Glc
# Outline: as §1
# [26] = molecular target: GalNAc(b1-3)Gal(a1-6)Gal(b1-4)Glc
# Outline: as §1
# [27] = molecular target: GalNAc(b1-3)GalNAc
# Outline: as §1
# [28] = molecular target: GalNAc(b1-4)Gal(b1-4)Glc
# Outline: as §1
# [29] = molecular target: GalNAc(b1-4)GlcNAc
# Outline: as §1
# [30] = molecular target: GalNAc(b1-4)GlcNAc(b1-2)Man(a1-3)[GalNAc(b1-4)GlcNAc(b1-2)Man(a1-6)]Man(b1-4)GlcNAc(b1-4)GlcNAc
# Outline: as §1
# [31] = molecular target: GalNAc(b1-6)GalNAc
# Outline: as §1
# [32] = molecular target: Glc(a1-4)Glc
# Outline: as §1
# [33] = molecular target: Glc(a1-4)Glc(a1-4)Glc(a1-4)Glc
# Outline: as §1
# [34] = molecular target: Glc(a1-6)Glc(a1-6)Glc
# Outline: as §1
# [35] = molecular target: Glc(a1-6)Glc(a1-6)Glc(a1-6)Glc
# Outline: as §1
# [36] = molecular target: Glc(b1-4)Glc
# Outline: as §1
# [37] = molecular target: Glc(b1-6)Glc
# Outline: as §1
# [38] = molecular target: GlcA(b1-3)Gal
# Outline: as §1
# [39] = molecular target: GlcA(b1-3)GlcNAc
# Outline: as §1
# [40] = molecular target: GlcA(b1-6)Gal
# Outline: as §1
# [41] = molecular target: GlcNAc(a1-3)Gal(b1-4)GlcNAc
# Outline: as §1
# [42] = molecular target: GlcNAc(a1-4)Gal(b1-3)GlcNAc
# Outline: as §1
# [43] = molecular target: GlcNAc(a1-4)Gal(b1-4)GalNAc
# Outline: as §1
# [44] = molecular target: GlcNAc(a1-4)Gal(b1-4)GlcNAc
# Outline: as §1
# [45] = molecular target: GlcNAc(a1-4)Gal(b1-4)GlcNAc(b1-3)Gal(b1-4)Glc
# Outline: as §1
# [46] = molecular target: GlcNAc(a1-4)Gal(b1-4)GlcNAc(b1-3)Gal(b1-4)GlcNAc
# Outline: as §1
# [47] = molecular target: GlcNAc(a1-4)Gal(b1-4)GlcNAc(b1-3)Gal(b1-4)GlcNAc(b1-3)Gal(b1-4)GlcNAc
# Outline: as §1
# [48] = molecular target: GlcNAc(a1-4)Gal(b1-4)GlcNAc(b1-3)Gal(b1-4)[Fuc(a1-3)]GlcNAc(b1-3)Gal(b1-4)[Fuc(a1-3)]GlcNAc
# Outline: as §1
# [49] = molecular target: GlcNAc(a1-6)Gal(b1-4)GlcNAc
# Outline: as §1
# [50] = molecular target: GlcNAc(b1-2)Gal(b1-3)GalNAc
# Outline: as §1
# [51] = molecular target: GlcNAc(b1-2)Man(a1-3)[GlcNAc(b1-2)Man(a1-6)]Man(b1-4)GlcNAc(b1-4)GlcNAc
# Outline: as §1
# [52] = molecular target: GlcNAc(b1-2)Man(a1-3)[GlcNAc(b1-2)Man(a1-6)]Man(b1-4)GlcNAc(b1-4)[Fuc(a1-6)]GlcNAc
# Outline: as §1
# [53] = molecular target: GlcNAc(b1-2)Man(a1-3)[GlcNAc(b1-4)][GlcNAc(b1-2)Man(a1-6)]Man(b1-4)GlcNAc(b1-4)GlcNAc
# Outline: as §1
# [54] = molecular target: GlcNAc(b1-2)[GlcNAc(b1-4)]Man(a1-3)[GlcNAc(b1-2)Man(a1-6)]Man(b1-4)GlcNAc(b1-4)GlcNAc
# Outline: as §1
# [55] = molecular target: GlcNAc(b1-2)[GlcNAc(b1-4)]Man(a1-3)[GlcNAc(b1-4)][GlcNAc(b1-2)Man(a1-6)]Man(b1-4)GlcNAc(b1-4)GlcNAc
# Outline: as §1
# [56] = molecular target: GlcNAc(b1-2)[GlcNAc(b1-4)]Man(a1-3)[GlcNAc(b1-4)][GlcNAc(b1-2)[GlcNAc(b1-6)]Man(a1-6)]Man(b1-4)GlcNAc(b1-4)GlcNAc
# Outline: as §1
# [57] = molecular target: GlcNAc(b1-2)[GlcNAc(b1-6)]Man(a1-6)[GlcNAc(b1-2)Man(a1-3)]Man(b1-4)GlcNAc(b1-4)GlcNAc
# Outline: as §1
# [58] = molecular target: GlcNAc(b1-2)[GlcNAc(b1-6)]Man(a1-6)[GlcNAc(b1-2)Man(a1-3)][GlcNAc(b1-4)]Man(b1-4)GlcNAc(b1-4)GlcNAc
# Outline: as §1
# [59] = molecular target: GlcNAc(b1-3)Gal
# Outline: as §1
# [60] = molecular target: GlcNAc(b1-3)Gal(b1-3)GalNAc
# Outline: as §1
# [61] = molecular target: GlcNAc(b1-3)Gal(b1-4)Glc
# Outline: as §1
# [62] = molecular target: GlcNAc(b1-3)Gal(b1-4)GlcNAc
# Outline: as §1
# [63] = molecular target: GlcNAc(b1-3)Gal(b1-4)GlcNAc(b1-3)Gal(b1-4)GlcNAc
# Outline: as §1
# [64] = molecular target: GlcNAc(b1-3)GalNAc
# Outline: as §1
# [65] = molecular target: GlcNAc(b1-3)Man
# Outline: as §1
# [66] = molecular target: GlcNAc(b1-3)[GlcNAc(b1-4)][GlcNAc(b1-6)]GlcNAc
# Outline: as §1
# [67] = molecular target: GlcNAc(b1-3)[GlcNAc(b1-6)]Gal(b1-4)GlcNAc
# Outline: as §1
# [68] = molecular target: GlcNAc(b1-3)[GlcNAc(b1-6)]GalNAc
# Outline: as §1
# [69] = molecular target: GlcNAc(b1-4)Gal(b1-4)GlcNAc
# Outline: as §1
# [70] = molecular target: GlcNAc(b1-4)GlcNAc
# Outline: as §1
# [71] = molecular target: GlcNAc(b1-4)GlcNAc(b1-4)GlcNAc
# Outline: as §1
# [72] = molecular target: GlcNAc(b1-4)GlcNAc(b1-4)GlcNAc(b1-4)GlcNAc(b1-4)GlcNAc
# Outline: as §1
# [73] = molecular target: GlcNAc(b1-4)GlcNAc(b1-4)GlcNAc(b1-4)GlcNAc(b1-4)GlcNAc(b1-4)GlcNAc
# Outline: as §1
# [74] = molecular target: GlcNAc(b1-4)[GlcNAc(b1-6)]GalNAc
# Outline: as §1
# [75] = molecular target: GlcNAc(b1-6)Gal(b1-4)GlcNAc
# Outline: as §1
binder,measurement,setting,value
"Intelectin 1 (Homo sapiens), Q8WWA0 (protein) MNQLSFLLFLIATTRGWSTDEANTYFKEWTCSSSPSLPRSCKEIKDECPSAFDGLYFLRTENGVIYQTFCDMTSGGGGWTLVASVHENDMRGKCTVGDRWSSQQGSKAVYPEGDGNWANYNTFGSAEAATSDDYKNPGYYDIQAKDLGIWHVPNKSPMQHWRNSSLLRYRTDTGFLQTLGHNLFGIYQKYPVKYGEGKCWTDNGPVIPVVYDFGDAQKTASYYSPYGQREFTAGFVQFRVFNNERAANALCAGMRVTGCNTEHHCIGGGGYFPEASPQQCGDFSGFDWSGYGTHVGYSSSREITEAAVLLFYR",glycan array binding signal (z-score),[1],0.759
same,glycan array binding signal (z-score),[2],0.117
same,glycan array binding signal (z-score),[3],-0.145
same,glycan array binding signal (z-score),[4],-0.906
same,glycan array binding signal (z-score),[5],-0.878
same,glycan array binding signal (z-score),[6],-0.184
same,glycan array binding signal (z-score),[7],0.387
same,glycan array binding signal (z-score),[8],-0.194
same,glycan array binding signal (z-score),[9],-1.23
same,glycan array binding signal (z-score),[10],-0.36
same,glycan array binding signal (z-score),[11],0.07
same,glycan array binding signal (z-score),[12],-0.783
same,glycan array binding signal (z-score),[13],0.867
same,glycan array binding signal (z-score),[14],1.05
same,glycan array binding signal (z-score),[15],-0.449
same,glycan array binding signal (z-score),[16],-0.149
same,glycan array binding signal (z-score),[17],-0.102
same,glycan array binding signal (z-score),[18],1.22
same,glycan array binding signal (z-score),[19],0.035
same,glycan array binding signal (z-score),[20],-0.766
same,glycan array binding signal (z-score),[21],-0.596
same,glycan array binding signal (z-score),[22],-0.039
same,glycan array binding signal (z-score),[23],2.09
same,glycan array binding signal (z-score),[24],-0.635
same,glycan array binding signal (z-score),[25],-0.703
same,glycan array binding signal (z-score),[26],-0.442
same,glycan array binding signal (z-score),[27],-0.802
same,glycan array binding signal (z-score),[28],0.205
same,glycan array binding signal (z-score),[29],-0.182
same,glycan array binding signal (z-score),[30],0.358
same,glycan array binding signal (z-score),[31],0.608
same,glycan array binding signal (z-score),[32],-0.436
same,glycan array binding signal (z-score),[33],0.146
same,glycan array binding signal (z-score),[34],0.027
same,glycan array binding signal (z-score),[35],0.434
same,glycan array binding signal (z-score),[36],-0.617
same,glycan array binding signal (z-score),[37],-0.722
same,glycan array binding signal (z-score),[38],-0.051
same,glycan array binding signal (z-score),[39],0.367
same,glycan array binding signal (z-score),[40],-0.654
same,glycan array binding signal (z-score),[41],-0.18
same,glycan array binding signal (z-score),[42],-1.27
same,glycan array binding signal (z-score),[43],-0.567
same,glycan array binding signal (z-score),[44],0.206
same,glycan array binding signal (z-score),[45],-0.339
same,glycan array binding signal (z-score),[46],3.85
same,glycan array binding signal (z-score),[47],0.337
same,glycan array binding signal (z-score),[48],3.27
same,glycan array binding signal (z-score),[49],0.578
same,glycan array binding signal (z-score),[50],0.637
same,glycan array binding signal (z-score),[51],-0.457
same,glycan array binding signal (z-score),[52],0.183
same,glycan array binding signal (z-score),[53],-0.134
same,glycan array binding signal (z-score),[54],-0.518
same,glycan array binding signal (z-score),[55],-0.37
same,glycan array binding signal (z-score),[56],0.236
same,glycan array binding signal (z-score),[57],0.657
same,glycan array binding signal (z-score),[58],0.148
same,glycan array binding signal (z-score),[59],-0.157
same,glycan array binding signal (z-score),[60],0.322
same,glycan array binding signal (z-score),[61],-0.656
same,glycan array binding signal (z-score),[62],-1.16
same,glycan array binding signal (z-score),[63],-0.062
same,glycan array binding signal (z-score),[64],1.24
same,glycan array binding signal (z-score),[65],-1.19
same,glycan array binding signal (z-score),[66],-0.034
same,glycan array binding signal (z-score),[67],0.046
same,glycan array binding signal (z-score),[68],-0.008
same,glycan array binding signal (z-score),[69],0.495
same,glycan array binding signal (z-score),[70],-0.139
same,glycan array binding signal (z-score),[71],0.712
same,glycan array binding signal (z-score),[72],-0.02
same,glycan array binding signal (z-score),[73],-0.987
same,glycan array binding signal (z-score),[74],-0.57
same,glycan array binding signal (z-score),[75],0.154
